Values of other authors as cited in patent publication US20250282866A1, “TREATMENT OF DISEASES RELATED TO ATP-BINDING CASSETTE TRANSPORTER 1 DYSFUNCTION USING TREM2 AGONISTS” (VIGIL NEUROSCIENCE, INC., priority 2020, published 2025).
Some of these results come from one statement about several compounds together.

System: Oligodendrocytes and astrocytes
Conditions: cells challenged with the VLCFA; conceptual basis of Example 1

| SMILES | Time to death of challenged oligodendrocytes and astrocytes [h] |
| --- | --- |
| CCCCCCCCCCCCCCCCCCCCCCCCCC(=O)O [C26:0, hexacosanoic acid] | ≤ 24 |
| CCCCCCCCCCCCCCCCCCCCCC(=O)O [C22:0, docosanoic acid] | ≤ 24 |
| CCCCCCCCCCCCCCCCCCCCCCCC(=O)O [C24:0, tetracosanoic acid] | ≤ 24 |
